Source: patent publication US8507498B2, “4, 6-disubstituted aminopyrimidine derivatives as inhibitors of protein kinases” (Ingenium Pharmaceuticals GmbH, priority 2007, dated 2013)
Some of these results come from one statement about several compounds together.

The chains behind the UniProt entries cited, without tags or fusion partners. Where a name states a change or a piece, a line headed by the entry shows the natural chain unless it says otherwise.
UniProt Q00535, whole entry: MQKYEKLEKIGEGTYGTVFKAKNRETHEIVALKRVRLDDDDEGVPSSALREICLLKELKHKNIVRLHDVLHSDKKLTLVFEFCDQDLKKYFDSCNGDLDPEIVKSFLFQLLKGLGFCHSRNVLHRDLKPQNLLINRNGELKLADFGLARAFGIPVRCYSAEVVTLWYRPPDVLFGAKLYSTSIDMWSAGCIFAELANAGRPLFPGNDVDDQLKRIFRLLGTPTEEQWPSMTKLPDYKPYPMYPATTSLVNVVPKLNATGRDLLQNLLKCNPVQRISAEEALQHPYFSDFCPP
UniProt Q00534, whole entry: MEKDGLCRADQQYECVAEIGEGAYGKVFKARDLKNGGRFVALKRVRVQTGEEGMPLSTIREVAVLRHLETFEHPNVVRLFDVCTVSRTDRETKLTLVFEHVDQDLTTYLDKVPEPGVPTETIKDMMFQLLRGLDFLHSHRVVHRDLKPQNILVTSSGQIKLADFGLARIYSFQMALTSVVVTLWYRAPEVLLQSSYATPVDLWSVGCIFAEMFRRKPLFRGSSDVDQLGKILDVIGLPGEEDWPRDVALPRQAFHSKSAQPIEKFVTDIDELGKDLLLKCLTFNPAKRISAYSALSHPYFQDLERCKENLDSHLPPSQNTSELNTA
UniProt P50750, whole entry: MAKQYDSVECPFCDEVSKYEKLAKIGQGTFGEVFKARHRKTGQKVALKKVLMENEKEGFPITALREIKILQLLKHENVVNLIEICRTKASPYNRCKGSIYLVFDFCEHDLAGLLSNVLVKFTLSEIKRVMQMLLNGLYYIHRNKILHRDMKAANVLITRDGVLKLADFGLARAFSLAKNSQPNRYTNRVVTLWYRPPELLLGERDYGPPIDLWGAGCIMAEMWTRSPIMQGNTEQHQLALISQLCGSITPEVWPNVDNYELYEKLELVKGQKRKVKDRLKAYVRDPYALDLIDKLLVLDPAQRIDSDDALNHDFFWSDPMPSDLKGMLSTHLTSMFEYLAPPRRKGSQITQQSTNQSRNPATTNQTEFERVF
UniProt P11802: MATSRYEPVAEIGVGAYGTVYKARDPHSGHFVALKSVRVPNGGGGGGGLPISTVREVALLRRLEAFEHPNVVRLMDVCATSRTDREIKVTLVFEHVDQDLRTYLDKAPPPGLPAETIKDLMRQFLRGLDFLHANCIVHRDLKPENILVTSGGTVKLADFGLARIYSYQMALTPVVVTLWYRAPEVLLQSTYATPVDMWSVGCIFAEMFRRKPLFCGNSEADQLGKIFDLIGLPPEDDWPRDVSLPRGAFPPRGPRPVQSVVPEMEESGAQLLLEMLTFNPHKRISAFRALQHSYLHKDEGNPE

Legend:
Experiment in all cases: In vitro kinase inhibition assay (33P FlashPlate)
Format in all cases: biochemical
CDK5/p35NCK = target: T1, CDK5/p35NCK (Homo sapiens, UniProt Q00535); settings: 1 μM ATP, bounds printed with units nM and μM
T1 construct: host or cells: Sf9 insect cells (baculovirus)

CDK6/CycD1 = target: T2, CDK6/CycD1 (Homo sapiens, UniProt Q00534); settings: CDK6/CycD1, 1 μM ATP; bounds printed with units nM and μM
T2 construct: host or cells: Sf9 insect cells (baculovirus)

CDK9/CycT = target: T3, CDK9/CycT (Homo sapiens, UniProt P50750); settings: 1 μM ATP, bounds printed with units nM and μM
T3 construct: host or cells: Sf9 insect cells (baculovirus)

CDK4/CycD1 = CDK4/CycD1 (Homo sapiens, UniProt P11802); design: host or cells: Sf9 insect cells (baculovirus); settings: CDK4/CycD1, 1 μM ATP; bounds printed with units nM and μM

Measured: IC50

O=S(=O)(Cc1cccc(Nc2cc(-c3ccccc3OCc3ccccc3)ncn2)c1)NC1CC1 [Compound 23, C-{3-[6-(2-Benzyloxy-phenyl)-pyrimidin-4-ylamino]-phenyl}-N-cyclopropyl-methanesulfonamide]
1 nM and 10000 nM: all assays above

COCCOc1ccccc1-c1cc(Nc2cccc(CS(N)(=O)=O)c2)nc(C)n1 [Compound 83, (3-{6-[2-(2-methoxy-ethoxy)-phenyl]-2-methyl-pyrimidin-4-ylamino}-phenyl)-methanesulfonamide]
1 nM and 10000 nM: all assays above

CS(=O)(=O)Cc1cccc(Nc2cc(-c3ccccc3CO)ncn2)c1 [Compound 56, {2-[6-(3-Methanesulfonylmethyl-phenylamino)-pyrimidin-4-yl]-phenyl}-methanol]
1 nM and 10000 nM: all assays above

CN(C)S(=O)(=O)Cc1cccc(Nc2cc(-c3ccccc3OCc3ccccc3)ncn2)c1 [Compound 24, C-{3-[6-(2-Benzyloxy-phenyl)-pyrimidin-4-ylamino)-phenyl}-N,N-dimethyl-methanesulfonamide]
1 nM and 10000 nM: all assays above

CNS(=O)(=O)Cc1cccc(Nc2cc(-c3ccccc3OCc3ccccc3)ncn2)c1 [Compound 44, C-{3-[6-(2-Benzyloxy-phenyl)-pyrimidin-4-ylamino]-phenyl}-N-methyl-methanesulfonamide]
1 nM and 10000 nM: all assays above

NS(=O)(=O)Cc1cccc(Nc2cc(-c3cccc(CN4CCCC(CCO)C4)c3)ncn2)c1 (centres unmarked) [Compound 72, [3-(6-{3-[3-(2-Hydroxy-ethyl)-piperidin-1-ylmethyl]-phenyl}-pyrimidin-4-ylamino)-phenyl]-methanesulfonamide]
1 nM and 10000 nM: all assays above

COc1ccccc1-c1cc(Nc2cccc(CS(=O)(=O)NC(C)(C)C)c2)ncn1 [Compound 15, N-tert-Butyl-C-{3-[6-(2-methoxy-phenyl)-pyrimidin-4-ylamino]-phenyl}-methanesulfonamide]
1 nM and 10000 nM: all assays above

COc1ccccc1-c1cc(Nc2cccc(CS(=O)(=O)CCCN(C)C)c2)ncn1 [Compound 84, [3-(3-Dimethylamino-propane-1-sulfonylmethyl)-phenyl]-[6-(2-methoxy-phenyl)-pyrimidin-4-yl]-amine]
1 nM and 10000 nM: all assays above

NS(=O)(=O)Cc1cccc(Nc2cc(-c3ccc(F)cc3)ncn2)c1 [Compound 7, {3-[6-(4-Fluoro-phenyl)-pyrimidin-4-ylamino]-phenyl}-methanesulfonamide]
1 nM and 10000 nM: all assays above

CN(C)Cc1cccc(-c2cc(Nc3cccc(CS(N)(=O)=O)c3)ncn2)c1 [Compound 74, {3-[6-(3-Dimethylaminomethyl-phenyl)-pyrimidin-4-ylamino]-phenyl}-methanesulfonamide]
1 nM and 10000 nM: all assays above

COCCCNS(=O)(=O)Cc1cccc(Nc2cc(-c3ccccc3OC)ncn2)c1 [Compound 33, C-{3-[6-(2-Methoxy-phenyl)-pyrimidin-4-ylamino]-phenyl}-N-(3-methoxy-propyl)-methanesulfonamide]
1 nM and 10000 nM: all assays above

COc1ccccc1-c1cc(Nc2cccc(CS(=O)(=O)N(C)C)c2)ncn1 [Compound 20, C-{3-[6-(2-methoxy-phenyl)-pyrimidin-4-ylamino]-phenyl}-N,N-dimethyl-methanesulfonamide]
1 nM and 10000 nM: all assays above

CCCNS(=O)(=O)Cc1cccc(Nc2cc(-c3ccccc3OCc3ccccc3)ncn2)c1 [Compound 21, C-{3-[6-(2-Benzyloxy-phenyl)-pyrimidin-4-ylamino]-phenyl}-N-propyl-methanesylfonamide]
1 nM and 10000 nM: all assays above

CC(C)Oc1ccccc1-c1cc(Nc2cccc(CS(N)(=O)=O)c2)ncn1 [Compound 5, {3-[6-(2-Isopropoxy-phenyl)-pyrimidin-4-ylamino]-phenyl}-methanesulfonamide]
1 nM and 10000 nM: all assays above

COc1ccccc1-c1cc(Nc2cccc(C3CCCN(C)S3(=O)=O)c2)ncn1 (centres unmarked) [Compound 68, [6-(2-Methoxy-phenyl)-pyrimidin-4-yl]-[3-(2-methyl-1,1-dioxo-[1,2]thiazinan-6-yl)-phenyl]-amine]
1 nM and 10000 nM: all assays above

COc1ccccc1-c1cc(Nc2cccc(CS(=O)(=O)N(C)CCO)c2)ncn1 [Compound 39, N-(2-Hydroxy-ethyl)-C-{3-[6-(2-methoxy-phenyl)-pyrimidin-4-ylamino]-phenyl}-N-methyl-methanesulfonamide]
1 nM and 10000 nM: all assays above

COc1cccc(-c2cc(Nc3cccc(CS(N)(=O)=O)c3)ncn2)c1OC [Compound 2, {3-[6-(2,3-Dimethoxy-phenyl)-pyrimidin-4-ylamino]-phenyl}-methanesulfonamide]
1 nM and 10000 nM: all assays above

NS(=O)(=O)Cc1cccc(Nc2cc(-c3ccccc3OCC3CCCO3)ncn2)c1 (centres unmarked) [Compound 82, (3-{6-[2-(tetrahydro-furan-2-ylmethoxy)-phenyl]-pyrimidin-4-ylamino}-phenyl)-methanesulfonamide]
1 nM and 10000 nM: all assays above

COc1ccccc1-c1cc(Nc2cccc(CS(=O)(=O)N3CCOCC3)c2)ncn1 [Compound 41, [6-(2-Methoxy-phenyl)-pyrimdin-4-yl]-[3-(morpholine-4-sulfonylmethyl)-phenyl]-amine]
1 nM and 10000 nM: all assays above

NS(=O)(=O)Cc1cccc(Nc2cc(-c3cccc(F)c3)ncn2)c1 [Compound 6, {3-[6-(3-Fluoro-phenyl)-pyrimidin-4-ylamino]-phenyl}-methanesulfonamide]
1 nM and 10000 nM: all assays above

COc1ccccc1-c1cc(Nc2cccc(CS(=O)(=O)N3CCC(C(N)=O)CC3)c2)ncn1 [Compound 40, 1-{3-[6-(2-Methoxy-phenyl)-pyrimidin-4-ylamino]-phenylmethanesulfonyl}-piperidine-4-carboxylic acid amide]
1 nM and 10000 nM: all assays above

CCOc1ccc(F)cc1-c1cc(Nc2cccc(CS(N)(=O)=O)c2)ncn1 [Compound 4, {3-[6-(2-Ethoxy-5-fluoro-phenyl)-pyrimidin-4-ylamino]-phenyl}-methanesulfonamide]
1 nM and 10000 nM: all assays above

COc1ccccc1-c1cc(Nc2cccc(CS(=O)(=O)NC3CC3)c2)ncn1 [Compound 11, N-Cyclopropyl-C-{3-[6-(2-methoxy-phenyl)-pyrimidin-4-ylamino]-phenyl}-methanesulfonamide]
1 nM and 10000 nM: all assays above

CCNS(=O)(=O)Cc1cccc(Nc2cc(-c3ccccc3OC)ncn2)c1 [Compound 45, N-Ethyl-C-{3-[6-(2-methoxy-phenyl)-pyrimidin-4-ylamino]-phenyl}-methanesulfonamide]
1 nM and 10000 nM: all assays above

COc1ccccc1-c1cc(Nc2cccc(CS(=O)(=O)NCC3CCCO3)c2)ncn1 (centres unmarked) [Compound 35, C-{3-[6-(2-Methoxy-phenyl)-pyrimidin-4-ylamino]-phenyl}-N-(tetrahydro-furan-2-ylmethyl)-methanesulfonamide]
1 nM and 10000 nM: all assays above

CCN(CC)S(=O)(=O)Cc1cccc(Nc2cc(-c3ccccc3OCc3ccccc3)ncn2)c1 [Compound 47, C-{3-[6-(2-Benzyloxy-phenyl)-pyrimidin-4-ylamino]-phenyl}-N,N-diethyl-methanesulfonamide]
1 nM and 10000 nM: all assays above
